Data as given in PubChem BioAssay AID493246 (Drosophila RNAi Screening Center, 2011).

Test: 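Identify essential fly genes by loss of cell viability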 (primary screen)
Cell system: Drosophila Kc and S2R+ cells
Knock-down reagent: long dsRNA against Drosophila genes
Measured: 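Cell number per well after knock-down, printed as raw plate values; calls were based on per-plate z-scores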
Scale: Kc cell number and S2R+ cell number: higher = more cells remaining
Active means: 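Active when the per-plate z-score of cell number is 3 or more in the direction of fewer cells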
The deposit covers about 21,000 reagents; below is a random part of those that have a named target and a result. Over the whole deposit, 429 (2%) got an active call. 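Values are raw and not normalised between plates; calls rest on per-plate z-scores that were not deposited.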 No sequences are given here. The record does not give: the amount of reagent, the time to read-out.

Against ec [DRSC17285], the values are Kc cell number, rep 1 = 1.40e6; Kc cell number, rep 2 = 1.48e6; S2R+ cell number, rep 1 = 1.07e6; S2R+ cell number, rep 2 = 1.13e6; inactive. Silencing of ec [DRSC17286] resulted in: Kc cell number, rep 1 = 1.30e6; Kc cell number, rep 2 = 1.41e6; S2R+ cell number, rep 1 = 1.12e6; S2R+ cell number, rep 2 = 1.25e6; inactive. ec [DRSC18658] scored Kc cell number, rep 1 = 1.65e6; Kc cell number, rep 2 = 1.64e6; S2R+ cell number, rep 1 = 9.88e5; S2R+ cell number, rep 2 = 1.10e6; inactive. For levy [DRSC04289] the deposit lists Kc cell number, rep 1 = 1.59e6; Kc cell number, rep 2 = 1.69e6; S2R+ cell number, rep 1 = 1.29e6; S2R+ cell number, rep 2 = 1.39e6; inactive. Knock-down of CCKLR-17D1 [DRSC20010] came out at: Kc cell number, rep 1 = 1.59e6; Kc cell number, rep 2 = 1.61e6; S2R+ cell number, rep 1 = 9.69e5; S2R+ cell number, rep 2 = 1.18e6; inactive. Knock-down of CCKLR-17D1 [DRSC20011] came out at: Kc cell number, rep 1 = 1.61e6; Kc cell number, rep 2 = 1.64e6; S2R+ cell number, rep 1 = 1.01e6; S2R+ cell number, rep 2 = 1.14e6; inactive.

With knock-down of CCKLR-17D1 [DRSC20012], the screen gave Kc cell number, rep 1 = 1.64e6; Kc cell number, rep 2 = 1.67e6; S2R+ cell number, rep 1 = 1.06e6; S2R+ cell number, rep 2 = 1.19e6; inactive. With knock-down of Ir94f [DRSC13621], the record shows Kc cell number, rep 1 = 1.13e6; Kc cell number, rep 2 = 1.42e6; S2R+ cell number, rep 1 = 1.07e6; S2R+ cell number, rep 2 = 1.07e6; inactive. With knock-down of thoc5 [DRSC04327] the results were Kc cell number, rep 1 = 1.35e6; Kc cell number, rep 2 = 1.43e6; S2R+ cell number, rep 1 = 1.11e6; S2R+ cell number, rep 2 = 1.12e6; inactive. Against Ufsp2 [DRSC10231], the entry reads Kc cell number, rep 1 = 1.47e6; Kc cell number, rep 2 = 1.49e6; S2R+ cell number, rep 1 = 1.34e6; S2R+ cell number, rep 2 = 1.33e6; inactive. hts [DRSC07629] gave Kc cell number, rep 1 = 1.44e6; Kc cell number, rep 2 = 1.53e6; S2R+ cell number, rep 1 = 1.15e6; S2R+ cell number, rep 2 = 1.21e6; inactive. With knock-down of hubl [DRSC06825] the results were Kc cell number, rep 1 = 1.43e6; Kc cell number, rep 2 = 1.56e6; S2R+ cell number, rep 1 = 1.30e6; S2R+ cell number, rep 2 = 1.37e6; inactive.

Depletion of CG14960 [DRSC08419] came out at: Kc cell number, rep 1 = 1.53e6; Kc cell number, rep 2 = 1.31e6; S2R+ cell number, rep 1 = 1.08e6; S2R+ cell number, rep 2 = 1.43e6; inactive. Cyp6d2 [DRSC04606] gave Kc cell number, rep 1 = 1.33e6; Kc cell number, rep 2 = 1.28e6; S2R+ cell number, rep 1 = 9.88e5; S2R+ cell number, rep 2 = 1.10e6; inactive.

2 neighbouring reagents already listed:
CG14960 [DRSC08419] → Kc cell number, rep 1: 1.53e6; Kc cell number, rep 2: 1.31e6; S2R+ cell number, rep 1: 1.08e6; S2R+ cell number, rep 2: 1.43e6; Call: inactive
Cyp6d2 [DRSC04606] → Kc cell number, rep 1: 1.33e6; Kc cell number, rep 2: 1.28e6; S2R+ cell number, rep 1: 9.88e5; S2R+ cell number, rep 2: 1.10e6; Call: inactive

Continued.
Adgf-A [DRSC10566] gave Kc cell number, rep 1 = 1.45e6; Kc cell number, rep 2 = 1.45e6; S2R+ cell number, rep 1 = 1.19e6; S2R+ cell number, rep 2 = 1.29e6; inactive. Knock-down of fray [DRSC16950] gave: Kc cell number, rep 1 = 1.13e6; Kc cell number, rep 2 = 1.24e6; S2R+ cell number, rep 1 = 1.03e6; S2R+ cell number, rep 2 = 1.07e6; inactive. Depletion of Tsp74F [DRSC10508] resulted in: Kc cell number, rep 1 = 1.36e6; Kc cell number, rep 2 = 1.51e6; S2R+ cell number, rep 1 = 1.25e6; S2R+ cell number, rep 2 = 1.38e6; inactive. For CG8188 [DRSC20090] the deposit lists Kc cell number, rep 1 = 1.54e6; Kc cell number, rep 2 = 1.55e6; S2R+ cell number, rep 1 = 1.07e6; S2R+ cell number, rep 2 = 1.12e6; inactive. Depletion of Galphaq [DRSC07432] came out at: Kc cell number, rep 1 = 1.36e6; Kc cell number, rep 2 = 1.40e6; S2R+ cell number, rep 1 = 1.21e6; S2R+ cell number, rep 2 = 1.29e6; inactive. Silencing of AdamTS-A [DRSC14992] resulted in: Kc cell number, rep 1 = 1.44e6; Kc cell number, rep 2 = 1.73e6; S2R+ cell number, rep 1 = 1.35e6; S2R+ cell number, rep 2 = 1.43e6; inactive.

AdamTS-A [DRSC15966] showed Kc cell number, rep 1 = 1.51e6; Kc cell number, rep 2 = 1.57e6; S2R+ cell number, rep 1 = 1.14e6; S2R+ cell number, rep 2 = 1.33e6; inactive. Silencing of bdwf [DRSC15532] gave: Kc cell number, rep 1 = 1.65e6; Kc cell number, rep 2 = 1.71e6; S2R+ cell number, rep 1 = 1.29e6; S2R+ cell number, rep 2 = 1.33e6; inactive. Against CG1927 [DRSC08146], the entry reads Kc cell number, rep 1 = 1.36e6; Kc cell number, rep 2 = 1.44e6; S2R+ cell number, rep 1 = 1.25e6; S2R+ cell number, rep 2 = 1.24e6; inactive. With knock-down of CG8401 [DRSC07165], the record shows Kc cell number, rep 1 = 1.36e6; Kc cell number, rep 2 = 1.41e6; S2R+ cell number, rep 1 = 1.12e6; S2R+ cell number, rep 2 = 1.16e6; inactive. With knock-down of IKKbeta [DRSC16714], the record shows Kc cell number, rep 1 = 1.55e6; Kc cell number, rep 2 = 1.63e6; S2R+ cell number, rep 1 = 1.21e6; S2R+ cell number, rep 2 = 1.27e6; inactive. Silencing of atl [DRSC16089] resulted in: Kc cell number, rep 1 = 1.56e6; Kc cell number, rep 2 = 1.49e6; S2R+ cell number, rep 1 = 1.08e6; S2R+ cell number, rep 2 = 1.15e6; inactive.

For CG17154 [DRSC10253], the entry reads Kc cell number, rep 1 = 1.39e6; Kc cell number, rep 2 = 1.26e6; S2R+ cell number, rep 1 = 1.29e6; S2R+ cell number, rep 2 = 1.37e6; inactive.
